From PMC3447965
These are yes or no findings as the source states them, for the method shown. Binding seen in cells or lysates may run through a third protein. Some entries that bind do so weakly or less than the wild type. For some of these results: Where a sequence is shown, tags or fusion partners need not be part of it.

T1: FLAG-tagged DOXA-1 (C. elegans) (UniProt P34298)
T1 sequence: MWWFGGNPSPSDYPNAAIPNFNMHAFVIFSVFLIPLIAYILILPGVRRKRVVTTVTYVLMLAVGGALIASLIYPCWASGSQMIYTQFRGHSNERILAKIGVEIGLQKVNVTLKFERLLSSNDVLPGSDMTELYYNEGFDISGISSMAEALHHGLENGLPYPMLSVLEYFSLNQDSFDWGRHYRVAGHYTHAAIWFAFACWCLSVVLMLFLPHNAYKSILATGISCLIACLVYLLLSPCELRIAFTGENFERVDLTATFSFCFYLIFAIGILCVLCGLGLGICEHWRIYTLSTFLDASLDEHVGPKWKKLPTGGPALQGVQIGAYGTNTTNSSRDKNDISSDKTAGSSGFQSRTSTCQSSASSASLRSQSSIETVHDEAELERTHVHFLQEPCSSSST

T2: DOXA-1::Venus fusion protein (C. elegans) (UniProt P34298)
T2 sequence: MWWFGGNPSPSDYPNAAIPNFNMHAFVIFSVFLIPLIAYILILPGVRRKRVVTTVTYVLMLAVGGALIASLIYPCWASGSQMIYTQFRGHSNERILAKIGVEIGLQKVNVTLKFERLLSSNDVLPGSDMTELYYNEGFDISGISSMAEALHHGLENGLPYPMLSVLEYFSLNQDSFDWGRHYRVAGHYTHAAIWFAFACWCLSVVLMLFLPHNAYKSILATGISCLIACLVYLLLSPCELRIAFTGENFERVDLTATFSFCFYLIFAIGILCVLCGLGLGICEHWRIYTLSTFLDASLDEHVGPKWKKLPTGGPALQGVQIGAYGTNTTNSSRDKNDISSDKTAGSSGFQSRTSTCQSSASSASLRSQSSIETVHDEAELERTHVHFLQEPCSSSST

T3: (His)6Xpress-tagged TSP-15 (C. elegans) (UniProt Q9XVM9)
T3 sequence: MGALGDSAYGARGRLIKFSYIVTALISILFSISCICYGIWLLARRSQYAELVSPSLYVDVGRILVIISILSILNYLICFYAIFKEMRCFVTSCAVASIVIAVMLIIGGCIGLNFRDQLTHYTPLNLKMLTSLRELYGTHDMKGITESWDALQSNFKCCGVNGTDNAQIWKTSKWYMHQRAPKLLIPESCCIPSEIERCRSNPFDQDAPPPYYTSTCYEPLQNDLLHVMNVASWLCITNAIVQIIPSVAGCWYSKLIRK

T4: Endogenous TSP-15 (C. elegans (endogenous in worms)) (UniProt Q9XVM9)
T4 sequence: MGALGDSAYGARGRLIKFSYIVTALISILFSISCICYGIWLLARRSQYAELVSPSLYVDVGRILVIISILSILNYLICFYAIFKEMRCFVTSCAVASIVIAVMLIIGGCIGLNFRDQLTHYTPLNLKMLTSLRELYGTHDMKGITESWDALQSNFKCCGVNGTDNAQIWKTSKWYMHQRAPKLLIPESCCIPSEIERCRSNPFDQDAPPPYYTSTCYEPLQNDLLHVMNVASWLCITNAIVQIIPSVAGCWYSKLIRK

T5: Xpress-tagged TSP-15 (in OB129 worms) (C. elegans) (UniProt Q9XVM9)
T5 sequence: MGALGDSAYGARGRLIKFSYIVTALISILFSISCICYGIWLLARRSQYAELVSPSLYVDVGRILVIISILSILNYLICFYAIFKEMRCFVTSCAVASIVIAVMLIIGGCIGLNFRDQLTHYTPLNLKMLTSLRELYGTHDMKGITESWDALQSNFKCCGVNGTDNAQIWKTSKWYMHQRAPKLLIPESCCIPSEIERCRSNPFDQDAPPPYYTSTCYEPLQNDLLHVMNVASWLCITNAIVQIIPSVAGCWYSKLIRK


How the values were obtained:
[1] = target: T1, FLAG-tagged DOXA-1 (C. elegans); experiment: co-IP; COS-7 stable transfectants of Xpress::TSP-15, DOXA-1::FLAG or both, BLI-3 transiently expressed; 1% CHAPS lysate (20 mM Tris-HCl, 150 mM NaCl, 2 mM EDTA, pH 7.5); precipitated with anti-FLAG M2 beads or anti-TSP-15 (2C2) agarose, immunoblot
[2] = target: T2, DOXA-1::Venus fusion protein (C. elegans); experiment: co-IP; C. elegans lysate (N2, OB129, OB218), sonicated, 1% Triton X-100; precipitated with rat anti-TSP-15 or mouse anti-GFP antibody; normal rat or mouse IgG as negative control; immunoblot
[3] = target: T3, (His)6Xpress-tagged TSP-15 (C. elegans); experiment: co-IP; COS-7 stable transfectants of Xpress::TSP-15, DOXA-1::FLAG or both, BLI-3 transiently expressed; 1% CHAPS lysate (20 mM Tris-HCl, 150 mM NaCl, 2 mM EDTA, pH 7.5); precipitated with anti-FLAG M2 beads or anti-TSP-15 (2C2) agarose, immunoblot
[4] = target: T4, Endogenous TSP-15 (C. elegans (endogenous in worms)); experiment: co-IP; C. elegans lysate (N2, OB129, OB218), sonicated, 1% Triton X-100; precipitated with rat anti-TSP-15 or mouse anti-GFP antibody; normal rat or mouse IgG as negative control; immunoblot
[5] = target: T5, Xpress-tagged TSP-15 (in OB129 worms) (C. elegans); experiment: as above

Binder | binding [1] | binding [2] | binding [3] | binding [4] | binding [5]
(His)6Xpress-tagged TSP-15 (protein, UniProt Q9XVM9 1-258) MGALGDSAYGARGRLIKFSYIVTALISILFSISCICYGIWLLARRSQYAELVSPSLYVDVGRILVIISILSILNYLICFYAIFKEMRCFVTSCAVASIVIAVMLIIGGCIGLNFRDQLTHYTPLNLKMLTSLRELYGTHDMKGITESWDALQSNFKCCGVNGTDNAQIWKTSKWYMHQRAPKLLIPESCCIPSEIERCRSNPFDQDAPPPYYTSTCYEPLQNDLLHVMNVASWLCITNAIVQIIPSVAGCWYSKLIRK | binds |  |  |  | 
BLI-3 (enzyme, UniProt O61213 22-1497) IQQNEEFQRYDGWYNNLANSEWGSAGSRLHRDARSYYSDGVYSVNNSLPSARELSDILFKGESGIPNTRGCTTLLAFFSQVVAYEIMQSNGVSCPLETLKIQVPLCDNVFDKECEGKTEIPFTRAKYDKATGNGLNSPREQINERTSWIDGSFIYGTTQPWVSSLRSFKQGRLAEGVPGYPPLNNPHIPLNNPAPPQVHRLMSPDRLFMLGDSRVNENPGLLSFGLILFRWHNYNANQIHREHPDWTDEQIFQAARRLVIASMQKIIAYDFVPGLLGEDVRLSNYTKYMPHVPPGISHAFGAAAFRFPHSIVPPAMLLRKRGNKCEFRTEVGGYPALRLCQNWWNAQDIVKEYSVDEIILGMASQIAERDDNIVVEDLRDYIFGPMHFSRLDVVASSIMRGRDNGVPPYNELRRTFGLAPKTWETMNEDFYKKHTAKVEKLKELYGGNILYLDAYVGGMLEGGENGPGELFKEIIKDQFTRIRDGDRFWFENKLNGLFTDEEVQMIHSITLRDIIKATTDIDETMLQKDVFFFKEGDPCPQPFQVNTTGLEPCVPFMQSTYWTDNDTTYVFTLIGLACVPLICYGIGRYLVNRRIAIGHNSACDSLTTDFANDDCGAKGDIYGVNALEWLQEEYIRQVRIEIENTTLAVKKPRGGILRKIRFETGQKIELFHSMPNPSAMHGPFVLLSQKNNHHLVIRLSSDRDLSKFLDQIRQAASGINAEVIIKDEENSILLSQAITKERRQDRLDLFFREAYAKAFNDSELQDSETSFDSSNDDILNETISREELASAMGMKANNEFVKRMFAMTAKHNEDSLSFNEFLTVLREFVNAPQKQKLQTLFKMCDLEGKNKVLRKDLAELVKSLNQTAGVHITESVQLRLFNEVLHYAGVSNDAKYLTYDDFNALFSDIPDKQPVGLPFNRKNYQPSIGETSSLNSFAVVDRSINSSAPLTLIHKVSAFLETYRQHVFIVFCFVAINLVLFFERFWHYRYMAENRDLRRVMGAGIAITRGAAGALSFCMALILLTVCRNIITLLRETVIAQYIPFDSAIAFHKIVALFAAFWATLHTVGHCVNFYHVGTQSQEGLACLFQEAFFGSNFLPSISYWFFSTITGLTGIALVAVMCIIYVFALPCFIKRAYHAFRLTHLLNIAFYALTLLHGLPKLLDSPKFGYYVVGPIVLFVIDRIIGLMQYYKKLEIVNAEILPSDIIYIEYRRPREFKYKSGQWVTVSSPSISCTFNESHAFSIASSPQDENMKLYIKAVGPWTWKLRSELIRSLNTGSPFPLIHMKGPYGDGNQEWMDYEVAIMVGAGIGVTPYASTLVDLVQRTSSDSFHRVRCRKVYFLWVCSTHKNYEWFVDVLKNVEDQARSGILETHIFVTQTFHKFDLRTTMLYICEKHFRATNSGISMFTGLHAKNHFGRPNFKAFFQFIQSEHKEQSKIGVFSCGPVNLNESIAEGCADANRQRDAPSFAHRFETF | binds |  | binds |  | 

Other lines, results leading:

binding [1] | binding [2] | binding [3] | binding [4] | binding [5] | Binder
 | binds |  |  |  | Endogenous TSP-15 (protein, UniProt Q9XVM9 1-258) MGALGDSAYGARGRLIKFSYIVTALISILFSISCICYGIWLLARRSQYAELVSPSLYVDVGRILVIISILSILNYLICFYAIFKEMRCFVTSCAVASIVIAVMLIIGGCIGLNFRDQLTHYTPLNLKMLTSLRELYGTHDMKGITESWDALQSNFKCCGVNGTDNAQIWKTSKWYMHQRAPKLLIPESCCIPSEIERCRSNPFDQDAPPPYYTSTCYEPLQNDLLHVMNVASWLCITNAIVQIIPSVAGCWYSKLIRK
 | binds |  | binds | binds | BLI-3 (in worms) (enzyme, UniProt O61213 22-1497) IQQNEEFQRYDGWYNNLANSEWGSAGSRLHRDARSYYSDGVYSVNNSLPSARELSDILFKGESGIPNTRGCTTLLAFFSQVVAYEIMQSNGVSCPLETLKIQVPLCDNVFDKECEGKTEIPFTRAKYDKATGNGLNSPREQINERTSWIDGSFIYGTTQPWVSSLRSFKQGRLAEGVPGYPPLNNPHIPLNNPAPPQVHRLMSPDRLFMLGDSRVNENPGLLSFGLILFRWHNYNANQIHREHPDWTDEQIFQAARRLVIASMQKIIAYDFVPGLLGEDVRLSNYTKYMPHVPPGISHAFGAAAFRFPHSIVPPAMLLRKRGNKCEFRTEVGGYPALRLCQNWWNAQDIVKEYSVDEIILGMASQIAERDDNIVVEDLRDYIFGPMHFSRLDVVASSIMRGRDNGVPPYNELRRTFGLAPKTWETMNEDFYKKHTAKVEKLKELYGGNILYLDAYVGGMLEGGENGPGELFKEIIKDQFTRIRDGDRFWFENKLNGLFTDEEVQMIHSITLRDIIKATTDIDETMLQKDVFFFKEGDPCPQPFQVNTTGLEPCVPFMQSTYWTDNDTTYVFTLIGLACVPLICYGIGRYLVNRRIAIGHNSACDSLTTDFANDDCGAKGDIYGVNALEWLQEEYIRQVRIEIENTTLAVKKPRGGILRKIRFETGQKIELFHSMPNPSAMHGPFVLLSQKNNHHLVIRLSSDRDLSKFLDQIRQAASGINAEVIIKDEENSILLSQAITKERRQDRLDLFFREAYAKAFNDSELQDSETSFDSSNDDILNETISREELASAMGMKANNEFVKRMFAMTAKHNEDSLSFNEFLTVLREFVNAPQKQKLQTLFKMCDLEGKNKVLRKDLAELVKSLNQTAGVHITESVQLRLFNEVLHYAGVSNDAKYLTYDDFNALFSDIPDKQPVGLPFNRKNYQPSIGETSSLNSFAVVDRSINSSAPLTLIHKVSAFLETYRQHVFIVFCFVAINLVLFFERFWHYRYMAENRDLRRVMGAGIAITRGAAGALSFCMALILLTVCRNIITLLRETVIAQYIPFDSAIAFHKIVALFAAFWATLHTVGHCVNFYHVGTQSQEGLACLFQEAFFGSNFLPSISYWFFSTITGLTGIALVAVMCIIYVFALPCFIKRAYHAFRLTHLLNIAFYALTLLHGLPKLLDSPKFGYYVVGPIVLFVIDRIIGLMQYYKKLEIVNAEILPSDIIYIEYRRPREFKYKSGQWVTVSSPSISCTFNESHAFSIASSPQDENMKLYIKAVGPWTWKLRSELIRSLNTGSPFPLIHMKGPYGDGNQEWMDYEVAIMVGAGIGVTPYASTLVDLVQRTSSDSFHRVRCRKVYFLWVCSTHKNYEWFVDVLKNVEDQARSGILETHIFVTQTFHKFDLRTTMLYICEKHFRATNSGISMFTGLHAKNHFGRPNFKAFFQFIQSEHKEQSKIGVFSCGPVNLNESIAEGCADANRQRDAPSFAHRFETF
